In article PMC4870365:
These are yes or no findings as the source states them, for the method shown. In cells and extracts the contact can be indirect. Some results given as binding are weak or reduced against the parent protein; the word gives no strength.

Protein sequences, listed by entry. Tags and fused reporters are not part of them.
UniProt P40763: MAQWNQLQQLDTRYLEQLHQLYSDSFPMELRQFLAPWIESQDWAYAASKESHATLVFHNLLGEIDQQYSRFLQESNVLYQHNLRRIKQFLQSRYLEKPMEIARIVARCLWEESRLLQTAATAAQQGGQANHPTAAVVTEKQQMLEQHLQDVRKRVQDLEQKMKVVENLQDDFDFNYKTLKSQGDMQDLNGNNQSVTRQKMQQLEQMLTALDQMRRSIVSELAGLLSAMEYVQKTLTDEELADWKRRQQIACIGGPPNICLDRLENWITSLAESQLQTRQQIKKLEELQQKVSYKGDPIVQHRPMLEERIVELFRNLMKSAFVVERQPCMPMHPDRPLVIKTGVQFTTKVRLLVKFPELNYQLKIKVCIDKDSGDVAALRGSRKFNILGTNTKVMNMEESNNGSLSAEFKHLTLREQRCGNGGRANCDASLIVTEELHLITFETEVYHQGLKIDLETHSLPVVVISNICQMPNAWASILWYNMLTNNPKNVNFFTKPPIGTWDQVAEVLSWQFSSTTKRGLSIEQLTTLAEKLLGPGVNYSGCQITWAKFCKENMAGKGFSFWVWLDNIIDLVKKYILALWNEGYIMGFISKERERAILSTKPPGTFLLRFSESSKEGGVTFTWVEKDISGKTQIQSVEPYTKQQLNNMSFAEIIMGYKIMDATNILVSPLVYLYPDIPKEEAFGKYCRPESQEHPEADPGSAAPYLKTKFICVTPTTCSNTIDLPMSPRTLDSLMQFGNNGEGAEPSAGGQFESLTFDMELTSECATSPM
UniProt P07355: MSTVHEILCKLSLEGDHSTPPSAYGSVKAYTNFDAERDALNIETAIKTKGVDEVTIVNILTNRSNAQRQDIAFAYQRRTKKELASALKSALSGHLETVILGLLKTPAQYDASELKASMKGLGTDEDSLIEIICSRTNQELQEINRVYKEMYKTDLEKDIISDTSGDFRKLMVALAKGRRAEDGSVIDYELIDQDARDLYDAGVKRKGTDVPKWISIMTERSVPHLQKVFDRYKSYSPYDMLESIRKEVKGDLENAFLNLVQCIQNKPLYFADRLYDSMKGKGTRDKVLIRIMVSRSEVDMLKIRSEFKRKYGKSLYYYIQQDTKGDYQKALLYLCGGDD

Biological target: phosphorylated STAT3 (Tyr 705) (human (endogenous in Caco-2)) (UniProt P40763)
Experiment: co-IP; Caco-2 cells (Annexin A2 (+) or control (+)) lysed with Triton X-100; supernatants incubated with anti-p-Anxa 2 (Tyr 23) or anti-p-STAT3 (Tyr 705) at 4°C overnight, protein A-sepharose beads 2 h at 4°C; western blotting

Substance: phosphorylated Annexin A2 (Tyr 23) (from UniProt P07355 1-339)
- binding: binds
